Test results taken from patent KR20150077749A.
No constants are given. Whether binding was seen depends on the method and setting. Some results given as binding are weak or reduced against the parent protein; the word gives no strength.

Key:
[1] = molecular target: T1, GRS (Glycyl-tRNA synthetase), purified recombinant antigen (human) (UniProt P41250); assay: Luminex multiplex bead assay, GRS coupled to beads
T1 sequence (looked up): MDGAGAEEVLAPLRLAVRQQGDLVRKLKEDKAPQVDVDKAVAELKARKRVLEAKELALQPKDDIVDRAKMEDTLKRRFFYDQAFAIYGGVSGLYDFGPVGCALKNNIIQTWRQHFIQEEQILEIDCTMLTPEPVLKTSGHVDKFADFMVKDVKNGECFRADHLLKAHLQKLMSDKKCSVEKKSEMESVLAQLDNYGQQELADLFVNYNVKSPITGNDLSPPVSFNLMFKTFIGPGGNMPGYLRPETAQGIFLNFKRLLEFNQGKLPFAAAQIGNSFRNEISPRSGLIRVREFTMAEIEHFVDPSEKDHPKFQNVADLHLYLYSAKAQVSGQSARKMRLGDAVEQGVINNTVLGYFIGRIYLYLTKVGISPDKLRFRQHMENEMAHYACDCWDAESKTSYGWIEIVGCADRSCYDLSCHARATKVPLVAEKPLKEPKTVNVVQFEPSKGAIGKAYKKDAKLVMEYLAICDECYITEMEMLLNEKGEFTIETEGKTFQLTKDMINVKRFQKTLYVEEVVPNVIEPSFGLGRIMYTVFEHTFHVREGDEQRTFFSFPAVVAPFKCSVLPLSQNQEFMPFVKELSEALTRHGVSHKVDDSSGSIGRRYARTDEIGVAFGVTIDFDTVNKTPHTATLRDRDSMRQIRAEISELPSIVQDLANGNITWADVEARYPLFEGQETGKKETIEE

[2] = molecular target: T1, GRS (Glycyl-tRNA synthetase), purified recombinant antigen (human); assay: phage display selection on GRS, western blot confirmation, sequencing
[3] = molecular target: T1, GRS (Glycyl-tRNA synthetase), purified recombinant antigen (human); assay: SPR (ProteOn XPR36), GRS amine-coupled to GLC chip, purified scFv as analyte
[4] = molecular target: T1, GRS (Glycyl-tRNA synthetase), purified recombinant antigen (human); assay: sandwich ELISA, scFv coated as capture antibody, rabbit polyclonal detection antibody
[5] = molecular target: T1, GRS (Glycyl-tRNA synthetase), purified recombinant antigen (human); assay: sandwich ELISA, scFv coated at 100-400 ng/well as capture antibody, rabbit polyclonal detection antibody
[6] = molecular target: T2, GRS expressed natively in human cells (HeLa cell lysate) (human) (UniProt P41250); assay: western blot
T2 sequence (looked up): T1 sequence (looked up)

[7] = molecular target: T2, GRS expressed natively in human cells (HeLa cell lysate) (human); assay: western blot on 50 ug HeLa cell lysate, periplasmic scFv, anti-HA-HRP detection

Measured: binding

B1: anti-GRS scFv, SEQ ID NO 41 (antibody iii) (scFv)
scFv: EVQLLESGGGLVQPGGSLRLSCAASGFTFSNYDMSWVRQAPGKGLEWVSWIYSNGSSTYYADSVKGRFTISRDNSKNTLYLQMNSLRAEDTAVYYCARITCMFDYWGQGTLVTVSSGGGGSGGGGSGGGGSQSVLTQPPSASGTPGQRVTISCSGSSSNIGSNYVTWYQQLPGTAPKLLIYADSHRPSGVPDRFSGSKSGTSASLAISGLRSEDEADYYCGSWDYSLNGYVFGGGTKLTVL
binds: [1] | [2] | [3] | [4] | [5]

B2: anti-GRS scFv, SEQ ID NO 27 (antibody ii) (scFv)
scFv: EVQLLESGGGLVQPGGSLRLSCAASGFTFSGYDMSWVRQAPGKGLEWVSAIYSDSGSTYYADSVKGRFTISRDNSKNTLYLQMNSLRAEDTAVYYCARNTALFDYWGQGTLVTVSSGGGGSGGGGSGGGGSQSVLTQPPSASGTPGQRVTISCSGSSSNIGSNYVTWYQQLPGTAPKLLIYANNHRPSGVPDRFSGSKSGTSASLAISGLRSEDEADYYCGAWDASLSGYVFGGGTKLTVL
binds: [1] | [2] | [3] | [4] | [5]

B3: anti-GRS scFv, SEQ ID NO 13 (antibody i) (scFv)
scFv: EVQLLESGGGLVQPGGSLRLSCAASGFTFSDYDMSWVRQAPGKGLEWVSAISPDDGSKYYADSVKGRFTISRDNSKNTLYLQMNSLRAEDTAVYYCARTTWLFDYWGQGTLVTVSSGGGGSGGGGSGGGGSQSVLTQPPSASGTPGQRVTISCTGSSSNIGNNYVNWYQQLPGTAPKLLIYADSHRPSGVPDRFSGSKSGTSASLAISGLRSEDEADYYCGAWDSSLSGYVFGGGTKLTVL
binds: [6] | [1] | [2] | [3] | [7] | [4] | [5]
